PubChem BioAssay AID504784 – Drosophila RNAi Screening Center – 2011
Screen: 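Search for regulators of lipid droplet storage in oleate-fed fly cells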 (primary screen). Cells: Drosophila Kc167 embryonic cells. Reagents: long dsRNA against Drosophila genes, about 250 ng dsRNA per well. Duration: 4 days. Conditions: cells fed 400 µM oleic acid bound to BSA. Read-out: 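Cells imaged and segmented; ratio of lipid droplet area to nuclear area, log-transformed, then normalised as a B-score over the screen; higher means more stored lipid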. Scale: droplet/nuclear area B-score: higher = more stored lipid (overstorage).
The deposit covers about 17,000 reagents; below is an unselected part of those with a known target gene and a result. 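Each column is one replicate's B-score; the combined score over replicates was not deposited, so single values may mislead.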 A plus sign joins genes that one reagent is predicted to hit. Not all columns of the deposit are shown.

sif (still life) [DRSC08759] gave droplet/nuclear area B-score, replicate 1 = -0.804.
For sif (still life) [DRSC11395], the values are droplet/nuclear area B-score, replicate 1 = 0.00552.
sif (still life) [DRSC22065] scored droplet/nuclear area B-score, replicate 1 = -0.00151.
For sif (still life) [DRSC22828] the deposit lists droplet/nuclear area B-score, replicate 1 = -1.44.
Silencing of Rpn2 (Regulatory particle non-ATPase 2) [DRSC16839] resulted in: droplet/nuclear area B-score, replicate 1 = 0.000227.
CG10433 [DRSC04068] gave droplet/nuclear area B-score, replicate 1 = -0.604.
Lcp65Ac [DRSC11210] scored droplet/nuclear area B-score, replicate 1 = -0.845.
Nepl17 (Neprilysin-like 17) [DRSC14880] scored droplet/nuclear area B-score, replicate 1 = 0.0655.
Depletion of Pde1c (Phosphodiesterase 1c) [DRSC02421] resulted in: droplet/nuclear area B-score, replicate 1 = -0.151.
Depletion of Pde1c (Phosphodiesterase 1c) [DRSC02422] came out at: droplet/nuclear area B-score, replicate 1 = 0.0125.
Against Pde1c (Phosphodiesterase 1c) [DRSC02423], the values are droplet/nuclear area B-score, replicate 1 = -1.26.
After knock-down of Pde1c (Phosphodiesterase 1c) [DRSC02424], the record shows droplet/nuclear area B-score, replicate 1 = 3.03.
Pde1c (Phosphodiesterase 1c) [DRSC02425] gave droplet/nuclear area B-score, replicate 1 = 0.969.
After knock-down of Pde1c (Phosphodiesterase 1c) [DRSC02426] the results were droplet/nuclear area B-score, replicate 1 = -1.67.
Against Ir56b (Ionotropic receptor 56b) [DRSC06543], the entry reads droplet/nuclear area B-score, replicate 1 = 1.59.
Rrp4 [DRSC04434] showed droplet/nuclear area B-score, replicate 1 = -0.316.
Against Art3 (Arginine methyltransferase 3) [DRSC16065], the entry reads droplet/nuclear area B-score, replicate 1 = -0.0202.
For Obp57c + Obp57b [DRSC21914] the deposit lists droplet/nuclear area B-score, replicate 1 = -1.12.
hts (hu li tai shao) [DRSC07629] showed droplet/nuclear area B-score, replicate 1 = -0.0215.
Silencing of CG16974 [DRSC02551] resulted in: droplet/nuclear area B-score, replicate 1 = -0.0526.
For TotZ (Turandot Z) [DRSC13450], the values are droplet/nuclear area B-score, replicate 1 = -2.06.
opm (opossum) [DRSC20141] scored droplet/nuclear area B-score, replicate 1 = 0.879.
With knock-down of opm (opossum) [DRSC22135] the results were droplet/nuclear area B-score, replicate 1 = 7.23.
CG10395 [DRSC04840] gave droplet/nuclear area B-score, replicate 1 = -1.57.
Against Taf10b + Taf10 [DRSC00793], the entry reads droplet/nuclear area B-score, replicate 1 = -1.65.
Burs (Bursicon) [DRSC14595] gave droplet/nuclear area B-score, replicate 1 = 0.632.
For kek3 (kekkon 3) [DRSC03553] the deposit lists droplet/nuclear area B-score, replicate 1 = -0.215.
For kek3 (kekkon 3) [DRSC22830], the entry reads droplet/nuclear area B-score, replicate 1 = -0.397.

A run of entries of the results above:
Pde1c (Phosphodiesterase 1c) [DRSC02423] → droplet/nuclear area B-score, replicate 1 = -1.26
Pde1c (Phosphodiesterase 1c) [DRSC02424] → droplet/nuclear area B-score, replicate 1 = 3.03
